From patent publication US20130052660A1
No constants are given. Whether binding was seen depends on the method and setting. Some results given as binding are weak or reduced against the parent protein; the word gives no strength. Tags and fused reporters may be left off the sequences shown.

Biological target: LZ2-GFP-CBD fusion protein (leucine zipper 2 linked at the N-terminus of GFP-CBD) (Cellulomonas fimi)
Assay: FCIB, fluorescence microscopy of E. coli co-expressing both proteins

binding, binds:
EQLEKKLQALEKKLAQLEWKNQALEKKLAQ (peptide, not shown: large carriers) [LZ1-RFP fusion protein (leucine zipper 1 fused at the N-terminus of RFP)]
EQLKKKLQALEKKLAQLEWKNQALEKELAQ (peptide, not shown: large carriers) [mLZ1(4/27)-RFP fusion protein]
EQLEKKLQALEKKLAQLEWKNQALKKKLAQ (peptide, not shown: large carriers) [mLZ1(25)-RFP fusion protein]
EQLEKKLQALKKKLAQLEWKNQALEKKLAQ (peptide, not shown: large carriers) [mLZ1(11)-RFP fusion protein]
EQLEKKLQALEKELAQLEWKNQALKKELAQ (peptide, not shown: large carriers) [mLZ1(13/25/27)-RFP fusion protein]

Biological target: LZ2-GFP-CBD fusion protein (leucine zipper 2 linked at the N-terminus of GFP-CBD) (Cellulomonas fimi)
Assay: FCIB, flow cytometry (FL1/FL2) of E. coli co-expressing both proteins

binding, binds:
EQLEKKLQALEKKLAQLEWKNQALEKKLAQ (peptide, not shown: large carriers) [LZ1-RFP fusion protein (leucine zipper 1 fused at the N-terminus of RFP)]
